Laboratory results taken from article PMC7156367, “Cell surface processing of the P1 adhesin of Mycoplasma pneumoniae identifies novel domains that bind host molecules” (Scientific Reports, 2020).

Tests used:
Test in all cases: ELISA; 15 µg/ml of C-terminal P1 fragment bound to wells, incubated with host protein at several concentrations; detected with antiserum against the host protein, absorbance at 450 nm; both purified
[1] = target: T1, P1-30, synthetic C-terminal peptide of P1 adhesin (Mycoplasma pneumoniae)
T1 sequence (peptide): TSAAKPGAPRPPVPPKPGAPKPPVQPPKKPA

[2] = target: T2, P1-15, synthetic C-terminal peptide of P1 adhesin with N-terminal biotin (Mycoplasma pneumoniae)
T2 sequence (peptide, N-terminal biotin tag): PGAPKPPVQPPKKPA

[3] = target: T3, Recombinant protein RP15 (C-terminal region of P1 adhesin) (Mycoplasma pneumoniae)
T3 sequence: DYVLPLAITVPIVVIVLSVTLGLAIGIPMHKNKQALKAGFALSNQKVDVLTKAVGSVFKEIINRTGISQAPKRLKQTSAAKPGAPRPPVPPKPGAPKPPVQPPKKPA

Human plasma fibronectin (ELISA) was tested, and the binding [1] was “binds”, the binding [2] was “no binding” and the binding [3] was “binds”.
For Human Glu-plasminogen (ELISA), the binding [1] was “binds”, the binding [2] was “binds” and the binding [3] was “binds”.
Human plasma fibrinogen (complex) was tested, and the binding [1] was “binds”, the binding [2] was “no binding” and the binding [3] was “binds”.

These are yes or no findings as the source states them, for the method shown. Binding can be weak; no strength is given. Tags and fused reporters may be left off the sequences shown.
